Measured values published in US7098245B2, “Polynucleotide cleavage agent switched on by photo irradiation” (Tottori University, priority 2002, dated 2006).
Entries after “also recorded” stand apart in the source; their conditions may differ. At least one structure is not confirmed: it was looked up by name or label, or the drawing left a doubt.

Test system: supercoiled φX174 DNA
Experiment: DNA cleavage test using (R,R)- and (S,S)-11 (Xe lamp, 45 min)
Format: biochemical
Protocol: The reaction was carried out in a solvent of 20 mM sodium phosphate of pH 7.0 and 20% DMSO. Samples were irradiated for 45 min at a distance of 6 cm using Xe lamp using polystylene filter. Electrophoresis (0.8% agarose gel, TAE buffer, 100 V, 40 min). Gel was stained by EtBr and visualized by UV-B lamp (transillumnator).

## O=C(NC[C@@H]1[C@@H](CO)C1(F)F)c1c2ccccc2cc2ccccc12 [(S,S)-11, (S,S)-2,2-difluoro-3-hydroxymethyl-cyclopropylmethyl anthracene-9-carboxylic amide]
20 mM sodium phosphate pH 7.0, 20% DMSO
  equivalent versus the DNA base pair at that concentration: 1.3 equivalent
20 mM sodium phosphate pH 7.0, 20% DMSO, 6 cm
  concentration at which supercoiled DNA was converted to the nicked form: 100 µM
FIG. 5
  DNA cleavage activity (qualitative): strong DNA cleavage activity; also recorded: same activity as (R,R)-11
